Consider one substance from publication PMC8599684.

By UniProt entry, the sequences of proteins in these tests, tags left out. Where a name states a change or a piece, a line headed by the entry shows the natural chain unless it says otherwise. Residues count along the entry.
UniProt Q9NV58: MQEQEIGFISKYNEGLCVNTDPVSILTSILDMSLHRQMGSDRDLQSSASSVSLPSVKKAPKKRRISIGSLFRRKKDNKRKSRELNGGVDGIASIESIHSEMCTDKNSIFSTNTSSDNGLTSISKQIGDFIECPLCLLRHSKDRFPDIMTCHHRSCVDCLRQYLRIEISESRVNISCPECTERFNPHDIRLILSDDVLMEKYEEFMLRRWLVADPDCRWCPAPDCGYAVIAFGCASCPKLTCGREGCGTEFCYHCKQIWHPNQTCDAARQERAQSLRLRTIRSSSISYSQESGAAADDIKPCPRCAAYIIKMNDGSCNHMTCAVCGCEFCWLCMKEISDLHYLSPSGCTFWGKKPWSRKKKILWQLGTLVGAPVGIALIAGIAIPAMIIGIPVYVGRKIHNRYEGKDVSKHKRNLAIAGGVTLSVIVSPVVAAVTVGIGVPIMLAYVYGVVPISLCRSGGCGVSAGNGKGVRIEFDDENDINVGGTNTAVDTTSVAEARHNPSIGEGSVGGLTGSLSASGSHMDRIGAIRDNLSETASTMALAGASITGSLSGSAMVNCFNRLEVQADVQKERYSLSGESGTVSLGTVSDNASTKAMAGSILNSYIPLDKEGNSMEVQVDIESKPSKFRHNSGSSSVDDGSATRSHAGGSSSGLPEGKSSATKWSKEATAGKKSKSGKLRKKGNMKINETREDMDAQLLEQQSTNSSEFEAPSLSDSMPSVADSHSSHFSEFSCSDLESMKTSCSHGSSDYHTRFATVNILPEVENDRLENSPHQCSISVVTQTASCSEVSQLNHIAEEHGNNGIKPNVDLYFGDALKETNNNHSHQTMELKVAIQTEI
UniProt Q99728, residues 26-327: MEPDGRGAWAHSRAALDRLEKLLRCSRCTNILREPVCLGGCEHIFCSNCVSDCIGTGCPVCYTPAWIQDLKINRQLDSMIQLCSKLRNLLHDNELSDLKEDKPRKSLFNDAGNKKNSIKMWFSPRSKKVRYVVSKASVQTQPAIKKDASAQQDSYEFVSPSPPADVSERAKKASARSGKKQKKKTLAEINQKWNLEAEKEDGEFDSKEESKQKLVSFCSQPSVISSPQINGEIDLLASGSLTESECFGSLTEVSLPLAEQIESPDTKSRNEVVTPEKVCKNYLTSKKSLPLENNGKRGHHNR

Results are given in words; binding and its absence hold for the method and conditions named. Binding can be weak; no strength is given.

The target in the assay is GST-RNF19A (human) (UniProt Q9NV58). Briefly: pull-down; GST-RNF19A proteins immobilised on GST beads, incubated with purified His-tagged proteins or His alone; western blot; both purified. For orientation: A western blot detects proteins with antibodies after separation by electrophoresis.

Regarding “His-BARD1 (26-327) (from UniProt Q99728 26-327) (domain or fragment)”, the binding result was “binds”.
